The values that follow come from PMC6929986.

The chains behind the UniProt entries cited, without tags or fusion partners. Residues count along the entry.
UniProt Q5VYY1: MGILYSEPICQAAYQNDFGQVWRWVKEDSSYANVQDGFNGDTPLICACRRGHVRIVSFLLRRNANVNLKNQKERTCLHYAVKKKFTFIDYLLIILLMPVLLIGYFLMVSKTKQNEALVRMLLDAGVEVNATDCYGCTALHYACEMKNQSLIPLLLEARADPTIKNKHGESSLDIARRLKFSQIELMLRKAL
UniProt Q15118, residues 29-436: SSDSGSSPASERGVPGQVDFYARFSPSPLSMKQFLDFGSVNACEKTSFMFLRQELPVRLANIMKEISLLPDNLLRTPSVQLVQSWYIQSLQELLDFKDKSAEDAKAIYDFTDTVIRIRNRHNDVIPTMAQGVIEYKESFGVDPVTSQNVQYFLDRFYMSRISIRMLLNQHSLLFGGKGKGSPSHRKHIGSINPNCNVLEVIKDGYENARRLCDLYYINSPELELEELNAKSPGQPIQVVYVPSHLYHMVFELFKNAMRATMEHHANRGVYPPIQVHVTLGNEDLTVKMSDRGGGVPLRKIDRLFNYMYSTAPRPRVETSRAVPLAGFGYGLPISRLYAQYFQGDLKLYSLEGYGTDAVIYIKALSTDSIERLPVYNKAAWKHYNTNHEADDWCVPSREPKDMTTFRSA

Assay [1] deals with Halo-ANKRD22 fusion protein (Ankyrin repeat domain-containing protein 22 fused with Halo-tag) (UniProt Q5VYY1). In words: pull-down; Halo-tag pull-down (called Co-IP by the paper) from lysate of RKO cells expressing Halo-ANKRD22 on HaloLink resin, Western blot of the eluate; 2D or organoid culture; also after SLC25A5 or ESYT1 knock-down; eluent of control cells as negative control.

Assay [2] concerns the target T1, Flag-SLC25A5 (Flag-tagged ANT2) (UniProt P05141).
T1 sequence: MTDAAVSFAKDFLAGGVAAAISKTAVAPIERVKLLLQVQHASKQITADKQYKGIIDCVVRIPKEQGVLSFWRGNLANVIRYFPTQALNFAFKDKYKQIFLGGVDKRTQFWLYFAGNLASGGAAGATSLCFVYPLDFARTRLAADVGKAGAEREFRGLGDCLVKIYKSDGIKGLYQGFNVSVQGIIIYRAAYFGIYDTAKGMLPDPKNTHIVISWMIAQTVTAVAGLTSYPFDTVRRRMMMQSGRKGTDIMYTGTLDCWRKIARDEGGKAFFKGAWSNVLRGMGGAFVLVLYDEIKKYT
In words: co-IP; Flag-SLC25A5/pcDNA3.1(-) or pcDNA3.1(-) transfected into E-Syt1-overexpressing 293T cells, Co-IP after 48 hours.

For assay [3], the target named is Halo-ANKRD22 fusion protein (Ankyrin repeat domain-containing protein 22 fused with Halo-tag) (UniProt Q5VYY1). In words: pull-down; Halo-tag pull-down (called Co-IP by the paper) from lysate of RKO cells expressing Halo-ANKRD22 on HaloLink resin, Western blot of the eluate; 2D or organoid culture; also after SLC25A5 or ESYT1 knock-down; eluent of control cells as negative control. The source holds these as a separate data set. (In general: Immunoblotting shows a protein as a band on a membrane.)

Like-named read-outs stand apart in the source and are kept apart here. Results are given in words; binding and its absence hold for the method and conditions named. In cells and extracts the contact can be indirect. Some results given as binding are weak or reduced against the parent protein; the word gives no strength. For part of these data: Tags and fused reporters may be left off the sequences shown.

“pyruvate dehydrogenase kinase isoform 1 (PDK1) (from UniProt Q15118 29-436) (enzyme)”: the binding entry in assay [1] is listed as “binds”.

B1: Extended Synaptotagmin-1 (E-Syt1), overexpressed (protein, UniProt Q9BSJ8 1-1104)
chain: MERSPGEGPSPSPMDQPSAPSDPTDQPPAAHAKPDPGSGGQPAGPGAAGEALAVLTSFGRRLLVLIPVYLAGAVGLSVGFVLFGLALYLGWRRVRDEKERSLRAARQLLDDEEQLTAKTLYMSHRELPAWVSFPDVEKAEWLNKIVAQVWPFLGQYMEKLLAETVAPAVRGSNPHLQTFTFTRVELGEKPLRIIGVKVHPGQRKEQILLDLNISYVGDVQIDVEVKKYFCKAGVKGMQLHGVLRVILEPLIGDLPFVGAVSMFFIRRPTLDINWTGMTNLLDIPGLSSLSDTMIMDSIAAFLVLPNRLLVPLVPDLQDVAQLRSPLPRGIIRIHLLAARGLSSKDKYVKGLIEGKSDPYALVRLGTQTFCSRVIDEELNPQWGETYEVMVHEVPGQEIEVEVFDKDPDKDDFLGRMKLDVGKVLQASVLDDWFPLQGGQGQVHLRLEWLSLLSDAEKLEQVLQWNWGVSSRPDPPSAAILVVYLDRAQDLPLKKGNKEPNPMVQLSIQDVTQESKAVYSTNCPVWEEAFRFFLQDPQSQELDVQVKDDSRALTLGALTLPLARLLTAPELILDQWFQLSSSGPNSRLYMKLVMRILYLDSSEICFPTVPGCPGAWDVDSENPQRGSSVDAPPRPCHTTPDSQFGTEHVLRIHVLEAQDLIAKDRFLGGLVKGKSDPYVKLKLAGRSFRSHVVREDLNPRWNEVFEVIVTSVPGQELEVEVFDKDLDKDDFLGRCKVRLTTVLNSGFLDEWLTLEDVPSGRLHLRLERLTPRPTAAELEEVLQVNSLIQTQKSAELAAALLSIYMERAEDLPLRKGTKHLSPYATLTVGDSSHKTKTISQTSAPVWDESASFLIRKPHTESLELQVRGEGTGVLGSLSLPLSELLVADQLCLDRWFTLSSGQGQVLLRAQLGILVSQHSGVEAHSHSYSHSSSSLSEEPELSGGPPHITSSAPELRQRLTHVDSPLEAPAGPLGQVKLTLWYYSEERKLVSIVHGCRSLRQNGRDPPDPYVSLLLLPDKNRGTKRRTSQKKRTLSPEFNERFEWELPLDEAQRRKLDVSVKSNSSFMSRERELLGKVQLDLAETDLSQGVARWYDLMDNKDKGSS
For the molecule B1, in assay [2], the binding entry was “binds”.

B2: Extended Synaptotagmin-1 (E-Syt1) (protein, UniProt Q9BSJ8 1-1104)
chain: B1 chain
Take B2: the binding result in assay [3] is listed as “binds”.
